In US20140235820A1, “METHODS AND COMPOSITIONS FOR MODULATING THE Wnt PATHWAY” (Genentech, Inc., priority 2010, published 2014):
For part of these data: For at least one compound, name, drawing or mass did not settle the structure. Some of these results come from one statement about several compounds together. Positions of bridges follow the written chain, without caps; N, C: chain ends. Residues, ends and D or L forms follow the SMILES beside them.

Experiments:
[1] = test system: LRP6 E1E2 variants with LRP5 BMD substitutions; assay: Steady-state affinity for LRP6 E1E2 variants carrying LRP5 BMD substitutions; type: binding, human; conditions: five substitutions characterized
Description: FIG. 13. Introduction of LRP5 BMD substitutions into LRP6 E1E2 lowers affinity for Wnt inhibitors. The five substitutions characterized are indicated on the y-axis. Steady-state affinity measurements were made for Wnt9b, Dkk1, and sclerostin binding to each of the LRP6 variants.
Binding kinetics were measured by biolayer interferometry using an Octet Red instrument (ForteBio) as previously described (11). Streptavidin (SA) biosensors were loaded with biotinylated hLRP6 in 50 mMTris, pH 8, 300 mM NaCl, 5% (v/v) glycerol, and 0.05% (w/v) Triton X-100. The loaded biosensors were washed in the same buffer before carrying out association and dissociation measurements for the indicated times. The Kd of each interaction was determined using steady state-analysis through the Octet Red software v6.3. Each reported value represents an average of three or more experiments at different concentrations, with a fitted experimental curve for which the square of the correlation coefficient (R^2) is above 0.96.
Cells transfected with LRP5 variants carrying BMD mutations show reduced binding to sclerostin and are less sensitive to sclerostin inhibition of Wnt10b or Wnt6 signaling (70). To further test the effects of the BMD substitutions, we introduced several of them into LRP6 E1E2, with the results shown in FIG. 13. LRP6 E1E2 Gly158Val could not be expressed in insect cells. […]

[2] = biological target: T1, LRP6 E1 (Homo sapiens, UniProt O75581); assay: Synthetic peptide competition binding to LRP6 E1; conditions: FIG. 20B; read-out: affinity for LRP6
T1 construct: construct E1-amino acids A20-D325 of LPR6; made in house; host or cells: Tni insect cells (baculovirus, secreted)
T1 sequence (O75581 20-325): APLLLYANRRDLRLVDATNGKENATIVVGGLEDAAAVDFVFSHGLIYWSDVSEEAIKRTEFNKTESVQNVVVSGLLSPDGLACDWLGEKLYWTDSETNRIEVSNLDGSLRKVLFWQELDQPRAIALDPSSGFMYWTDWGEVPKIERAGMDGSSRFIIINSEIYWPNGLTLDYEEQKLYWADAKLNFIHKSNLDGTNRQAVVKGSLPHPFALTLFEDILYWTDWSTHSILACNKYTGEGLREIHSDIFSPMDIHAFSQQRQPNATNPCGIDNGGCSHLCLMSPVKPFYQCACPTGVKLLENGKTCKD
Description: Alternatively, affinities were determined by fluorescence polarization (FP). A fluorescein-modified peptide probe (30 nM) was mixed with LRP5 or LRP6 E1 domain at a concentration suitable for the affinity of the particular target-probe combination (approximately Kd). Competing test agent (protein or peptide) was then added and FP monitored as a function of concentration of the test agent Inhibition constants were obtained by fitting the resulting curves to standard equations using the program KaleidaGraph (Synergy Software).
Peptide affinities were also determined by competition with phage displaying a binding peptide (competition phage ELISA). Serial dilutions of test peptide were mixed with an appropriate (non-saturating) concentration of phage before exposing the mixture to target and allowing it to reach equilibrium. After washing to remove unbound material, bound phage were detected by incubation with anti-M13 antibody-horseradish peroxidase (HRP) conjugate and exposure to a suitable colorometric HRP substrate.
Finally, peptide affinities were also determined by competition ELISA. Maxi-Sorb plates (Nunc) were coated with streptavidin or NeutrAvidin (5 μg/mL in phosphate-buffered saline (PBS); overnight, 4° C.) then blocked with 0.2% bovine serum albumin (BSA) in PBS (1 h, room temperature). […] Wells were quenched with 1 M H3PO4 and plates read at 450 nm. […]

| Compound | change in affinity for the LRP6 E1E2 BMD variants compared to wild type [1] | IC50 [2] [µM] |
| --- | --- | --- |
| Dkk1: Dickkopf 1 protein, Wnt pathway inhibitor, expressed in insect cells (NSNAIKN) | 10-250 fold |  |
| CC[C@H](C)[C@@H]1NC(=O)[C@H](CO)NC(=O)[C@H](CC(N)=O)NC(=O)[C@H]([C@@H](C)O)NC(=O)[C@@H](NC(=O)[C@@H](N)CO)CSSC[C@@H](C(=O)N[C@@H](Cc2ccc(O)cc2)C(=O)NCC(=O)O)NC(=O)[C@H](CCC(N)=O)NC(=O)[C@@H]2CCCN2C(=O)[C@@H]2CCCN2C1=O [BBI mimetic] (H-SCTNSIPPQCYG-OH; disulfide 2-10; N-terminus and C-terminus assumed) |  | 22 |
| sclerostin: Sclerostin protein, Wnt pathway inhibitor, expressed in insect cells (LPNAIGR) | 10-250 fold |  |
